Pks13 thioesterase: 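Enzyme assay of the thioesterase domain of polyketide synthase 13; the read-out is not stated. Target: Polyketide synthase Pks13, Mycobacterium tuberculosis (UniProt I6X8D2). Concentration: 30 µM. The record gives no direction; the compounds picked for IC50 retests had high values, so higher reads as stronger inhibition. About 67,000 compounds were tested under these conditions; 0.46% (about 300) showed 50% or more at least once.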
TcHisRS: 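Enzyme assay of histidyl-tRNA synthetase; the read-out is not stated. Target: Histidine-tRNA ligase, Trypanosoma cruzi CL Brener (UniProt Q4DA54). Concentration: 30 µM. Higher reads as stronger inhibition (inferred: compounds with an IC50 in retests scored well above the rest). About 69,000 compounds were tested under these conditions; 0.045% (about 31) showed 50% or more at least once.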
ClpP1P2: 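ClpP1P2, Mycobacterium tuberculosis (UniProt P9WPC5 and UniProt P9WPC3). Protease assay of ClpP1P2, read by the AMC dye that it sets free. Tested at 50 µM. Higher reads as stronger inhibition, judged from the few compounds that gave an IC50. Most other retested compounds had strongly negative values. Of about 69,000 compounds tested this way, about 10 (0.015%) reached 50% or more in at least one test.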
Leishmania in macrophages: 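Cell assay of Leishmania donovani living inside macrophages; the read-out is not stated. Concentration: 30 µM. The record gives no direction; compounds that gave an IC50 in retests scored well above the rest, so higher reads as stronger inhibition. Of about 69,000 compounds tested this way, about 1,000 (1.5%) reached 50% or more in at least one test.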
LiHisRS: 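Enzyme assay of histidyl-tRNA synthetase; the read-out is not stated. Target: Histidine-tRNA ligase, Leishmania infantum (UniProt A4I591). Compounds at 30 µM. The record gives no direction; compounds that gave an IC50 in retests scored well above the rest, so higher reads as stronger inhibition. The assay is labelled LdHisRS but filed under L. infantum. Of about 69,000 compounds tested this way, about 410 (0.6%) reached 50% or more in at least one test.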

Protein sequences, listed by entry. Tags and fused reporters are not part of them. Residues count along the entry.
UniProt I6X8D2, whole entry: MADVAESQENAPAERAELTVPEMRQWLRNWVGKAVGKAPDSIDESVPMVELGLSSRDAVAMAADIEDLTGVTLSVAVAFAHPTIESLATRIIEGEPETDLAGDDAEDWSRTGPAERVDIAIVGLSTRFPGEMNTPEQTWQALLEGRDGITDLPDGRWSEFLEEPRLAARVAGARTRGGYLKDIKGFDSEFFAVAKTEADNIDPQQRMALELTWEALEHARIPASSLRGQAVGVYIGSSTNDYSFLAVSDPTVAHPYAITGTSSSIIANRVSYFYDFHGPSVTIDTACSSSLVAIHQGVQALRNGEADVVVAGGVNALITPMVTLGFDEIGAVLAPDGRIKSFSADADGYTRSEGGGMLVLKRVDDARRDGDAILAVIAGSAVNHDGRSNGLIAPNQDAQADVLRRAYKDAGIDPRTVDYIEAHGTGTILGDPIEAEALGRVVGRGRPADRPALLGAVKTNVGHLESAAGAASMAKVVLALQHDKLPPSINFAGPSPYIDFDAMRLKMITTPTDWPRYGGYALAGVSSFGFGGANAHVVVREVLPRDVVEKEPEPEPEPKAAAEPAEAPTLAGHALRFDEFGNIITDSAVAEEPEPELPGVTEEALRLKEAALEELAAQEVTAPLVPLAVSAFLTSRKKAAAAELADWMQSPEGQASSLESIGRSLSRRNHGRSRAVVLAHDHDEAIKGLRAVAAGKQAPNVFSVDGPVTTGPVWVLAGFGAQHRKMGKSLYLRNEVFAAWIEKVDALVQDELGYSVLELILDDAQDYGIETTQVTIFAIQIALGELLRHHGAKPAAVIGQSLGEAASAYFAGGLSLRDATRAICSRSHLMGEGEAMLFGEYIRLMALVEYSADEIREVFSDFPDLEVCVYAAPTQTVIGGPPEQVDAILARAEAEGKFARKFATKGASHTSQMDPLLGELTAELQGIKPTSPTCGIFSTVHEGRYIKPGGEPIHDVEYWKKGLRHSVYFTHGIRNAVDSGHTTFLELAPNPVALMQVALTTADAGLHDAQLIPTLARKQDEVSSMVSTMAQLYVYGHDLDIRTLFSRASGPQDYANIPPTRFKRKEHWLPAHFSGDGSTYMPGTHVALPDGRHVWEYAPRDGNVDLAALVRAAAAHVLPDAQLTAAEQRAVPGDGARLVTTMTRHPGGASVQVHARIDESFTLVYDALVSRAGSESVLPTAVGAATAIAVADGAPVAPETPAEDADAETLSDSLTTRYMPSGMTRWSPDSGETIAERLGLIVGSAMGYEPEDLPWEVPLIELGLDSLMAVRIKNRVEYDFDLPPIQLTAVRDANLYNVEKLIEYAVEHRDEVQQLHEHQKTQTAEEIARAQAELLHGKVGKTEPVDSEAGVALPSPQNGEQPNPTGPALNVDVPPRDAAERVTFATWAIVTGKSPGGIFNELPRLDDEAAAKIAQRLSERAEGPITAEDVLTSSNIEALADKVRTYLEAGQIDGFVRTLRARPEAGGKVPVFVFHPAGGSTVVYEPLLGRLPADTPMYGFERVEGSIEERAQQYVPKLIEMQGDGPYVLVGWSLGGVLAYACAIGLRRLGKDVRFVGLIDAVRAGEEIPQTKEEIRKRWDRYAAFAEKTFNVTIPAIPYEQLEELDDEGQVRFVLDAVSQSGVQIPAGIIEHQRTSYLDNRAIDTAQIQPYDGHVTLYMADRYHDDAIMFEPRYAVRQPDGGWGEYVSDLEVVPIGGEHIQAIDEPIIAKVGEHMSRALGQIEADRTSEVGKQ
UniProt Q4DA54, 1-478: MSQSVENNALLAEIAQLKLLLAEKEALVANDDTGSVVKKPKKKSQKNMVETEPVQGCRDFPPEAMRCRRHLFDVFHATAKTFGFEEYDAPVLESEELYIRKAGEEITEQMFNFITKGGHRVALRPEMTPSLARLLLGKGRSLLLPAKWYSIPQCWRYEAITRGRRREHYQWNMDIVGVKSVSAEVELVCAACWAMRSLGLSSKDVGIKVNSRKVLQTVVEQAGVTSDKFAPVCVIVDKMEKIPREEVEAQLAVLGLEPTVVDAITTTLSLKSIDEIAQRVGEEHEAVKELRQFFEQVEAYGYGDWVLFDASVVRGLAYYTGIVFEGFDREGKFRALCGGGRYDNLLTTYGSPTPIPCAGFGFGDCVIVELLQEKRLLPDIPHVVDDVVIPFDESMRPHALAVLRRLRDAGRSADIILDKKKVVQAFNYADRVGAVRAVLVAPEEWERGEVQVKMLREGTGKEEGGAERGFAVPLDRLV
UniProt P9WPC5, whole entry: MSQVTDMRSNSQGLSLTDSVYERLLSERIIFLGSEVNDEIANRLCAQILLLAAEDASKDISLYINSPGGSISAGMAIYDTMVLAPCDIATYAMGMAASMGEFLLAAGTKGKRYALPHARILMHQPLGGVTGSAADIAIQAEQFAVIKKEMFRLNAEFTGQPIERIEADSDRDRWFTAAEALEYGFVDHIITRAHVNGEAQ
UniProt P9WPC3, whole entry partner: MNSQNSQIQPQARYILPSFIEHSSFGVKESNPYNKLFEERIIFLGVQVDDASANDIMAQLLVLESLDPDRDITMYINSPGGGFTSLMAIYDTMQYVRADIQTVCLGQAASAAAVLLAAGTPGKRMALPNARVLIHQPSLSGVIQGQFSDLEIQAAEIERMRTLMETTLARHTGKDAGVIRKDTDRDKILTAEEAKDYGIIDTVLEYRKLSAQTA
UniProt A4I591, 1-473: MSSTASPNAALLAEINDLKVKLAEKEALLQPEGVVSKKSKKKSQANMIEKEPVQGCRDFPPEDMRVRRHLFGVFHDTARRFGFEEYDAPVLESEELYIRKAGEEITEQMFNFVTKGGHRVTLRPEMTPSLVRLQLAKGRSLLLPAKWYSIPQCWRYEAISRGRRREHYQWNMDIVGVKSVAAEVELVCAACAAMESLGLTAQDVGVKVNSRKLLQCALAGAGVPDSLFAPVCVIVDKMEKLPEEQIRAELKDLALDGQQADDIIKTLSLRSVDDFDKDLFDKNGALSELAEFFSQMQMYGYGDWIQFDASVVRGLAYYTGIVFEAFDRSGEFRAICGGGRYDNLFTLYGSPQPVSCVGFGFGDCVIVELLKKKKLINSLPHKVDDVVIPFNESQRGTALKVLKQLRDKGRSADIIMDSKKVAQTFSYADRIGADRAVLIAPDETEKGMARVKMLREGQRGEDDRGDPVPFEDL

Values are the deposited “Percent Effect”, in %.
The controls that fix the scale are not given in the record; negative values are as filed.
This is an unselected part of the compounds tested.
Two or more numbers in one place are separate tests of the same structure; such repeats can differ widely.
A dash means the value is not listed here; it may have been measured.

SMILES	Pks13 thioesterase	TcHisRS	ClpP1P2	Leishmania in macrophages	LiHisRS
CC(C)Nc1nc2c(c(NC3CC3)n1)CN(C(=O)c1ccnnc1)CC2	12.86	-2.454	2.133	-20.71	-3.419
CC(C)c1nc(C2CCCN(C(=O)c3ccc4nccn4c3)C2)no1 (stereo not drawn)	-18.91	-2.642	4.814	-29.86	5.333
COCCN1CCC2(C1)c1ccccc1S(=O)(=O)N2Cc1ccccc1 (stereo not drawn)	-14.35	5.747	3.398	-	10
Cc1occc1C(=O)N1C[C@@H]2OCCN(c3ncccn3)[C@@H]2C1	-15.98	-0.9524	-16.42	-	8.333
Cc1ccc(C(=O)N2C[C@@H]3CN(c4ncccn4)C[C@@H]3C2)cn1	-15.34	4.598	5.307	-	18
COc1cccc2sc(N3CC(OC(C)=O)C3)nc12	-0.002374	9.135	-5.082	10.91	21.95
Cc1cccc(CN2CC3(CCN(C(=O)C4CC4)CC3)OCC2=O)n1	-4.512	3.738	-17.16	-8.519	8.333
O=C(O)[C@H]1C[C@@H](C(=O)NCc2ccncc2)CN(Cc2ccccc2)C1	-11.91	0.5291	-3.086	26.88	9.333
Cc1nn(C)c(C)c1C1CCCN1Cc1nc(-c2ccco2)no1 (stereo not drawn)	-6.008	-3.448	12	37.16	36.92
CC(C)c1nccc(CN2CCC(c3nc4ccccc4n3C)CC2)n1	-3.935	3.614	-18.68	-29.49 & 30.22	23.08
Cc1oc(-c2ccc(F)cc2F)nc1CN1C[C@@H](C)O[C@@H](C)C1	4.414	6.18	-1.993	-3.431	-2.564
CC(C)c1noc(-c2cccc(OCC(N)=O)c2)n1	-21.15	8	-0.9241	0.4673	5.479
C/C=C(\C)CN(CCN1CCOCC1)Cc1ccco1	-12.12	7.463	-1.433	11.04	13.99
CCC[C@@H]1CN(Cc2ccc(N(C)C)nc2)C[C@H]1N(C)C	-32.3	5.946	-10.99	29.27	-10.26
Cc1ccc(-c2nc(CN(Cc3ccco3)C3CCS(=O)(=O)C3)cs2)o1 (stereo not drawn)	-2.796	-2.521	4.623	-3.151	17.54
O=C(O)C(F)(F)F.[H][C@@]12CCN(Cc3nccs3)[C@]1([H])CC[C@@H](C(=O)N(C)C)O2	-	-	-	10.7	-
CNc1ccnc(NCCSc2nccn2C)n1	-34.16	3.448	-2.425	13.63	12.82
Nc1nc(NCCc2[nH]nc3c2CCCC3)cc(N2CCOCC2)n1	-23.14	5.747	-10.28	15.21	20.97
CCC(CC)CN1CCCn2nc(CNC(=O)COC)cc2C1	-26.79	4.372	-13.75	15.65	10.53
Cc1cc(CN(Cc2cccnc2)CC2CCCO2)on1 (stereo not drawn)	-4.05	12.2	-14.89	-36.01	20.48
Cc1cc(NC(=O)N2CCCC(CO)C2)nn1-c1ccccc1Cl (stereo not drawn)	-17.68	1.786	1.748	16.14	11.83
COCC(=O)N1CCC(c2nccn2CC2CC2)CC1	-8.898	2.5	-5.614	38.55	25
Cc1cccc(N2CCc3ncc(CNc4ccccn4)n3CC2)n1	-36.92	1.869	-2.957	-	13.89
O=C(c1ccco1)N1C[C@H]2CCCN(Cc3nccs3)[C@H]2C1	-3.794	7.438	7.054	-	16.36
c1cncc(-c2noc(CN3CCn4c(nnc4C4CC4)C3)n2)c1	-17.45	3.812	-19.2	34.04	8.333
c1cn2c(n1)CN(CC1CC1)CC(CN1CCOCC1)C2 (stereo not drawn)	-5.063	3.825	8.838	-	17.65
Cc1cc(C(=O)Nc2ccc3c(c2)N(C)CCN(C)C3)on1	0.6927	5.051	-18.11	-22.78	3.191
COCCNC(=O)c1sc2ccccc2c1C1CCC(CN)CC1.Cl (stereo not drawn)	-	-	-	18.8	-
CCOc1ncccc1C(=O)N1CCC(Nc2ccc(C)nn2)CC1	-14.54	8.646	-27.5	28.44	14.29
CCn1c(C2CCCN(S(=O)(=O)C3CC3)C2)nn(CCN(C)C)c1=O (stereo not drawn)	6.777	4.523	-0.9151	21.97	21.6
Cc1ccc2cnn(CCC(=O)NCc3c(C)nn(C)c3C)c2c1	-8.87	5.858	-0.1919	24.38	14.15
Cc1noc(CNc2ccccc2C(=O)N2CCCC(O)C2)n1 (stereo not drawn)	0.5156	-1.093	-1.725	10.98	19.18
CS(=O)(=O)NCCC(=O)N1Cc2cnc(-c3ccccc3)nc2C1	12.41	1.587	16.23	16.19	-8.824
COc1ccccc1CNc1ncc(-c2cc(C)no2)c(C(C)C)n1	14.51	13.33	15.89	21.46 & 39.4	18.56
O=C(Nc1ccc2c(c1)C(=O)NC2)c1ccc(S(=O)(=O)C(F)(F)F)cc1	-13.94	4.741	-3.779	26.25	24.05
Cc1nc(C)c(C(=O)N2Cc3ccccc3OCC2Cn2ccnc2)s1 (stereo not drawn)	42.09	4.981	-22	11.65	10
Cc1cnn(CCNCc2nnc(-c3ccc(F)cc3)o2)c1	-9.713	1.994	-9.145	17.08	8.547

The last 4 entries again:

| SMILES | Pks13 thioesterase | TcHisRS | ClpP1P2 | Leishmania in macrophages | LiHisRS |
|---|---|---|---|---|---|
| `COc1ccccc1CNc1ncc(-c2cc(C)no2)c(C(C)C)n1` | 14.51 | 13.33 | 15.89 | 21.46 & 39.4 | 18.56 |
| `O=C(Nc1ccc2c(c1)C(=O)NC2)c1ccc(S(=O)(=O)C(F)(F)F)cc1` | -13.94 | 4.741 | -3.779 | 26.25 | 24.05 |
| `Cc1nc(C)c(C(=O)N2Cc3ccccc3OCC2Cn2ccnc2)s1` (stereo not drawn) | 42.09 | 4.981 | -22 | 11.65 | 10 |
| `Cc1cnn(CCNCc2nnc(-c3ccc(F)cc3)o2)c1` | -9.713 | 1.994 | -9.145 | 17.08 | 8.547 |

Source: ChEMBL document CHEMBL3988442, “University of Dundee, Small-Polar-MMV Screening Library” (2021).